Measurements reported in PubChem BioAssay AID1053208 (Peter MacCallum Cancer Centre, 2014).
This is an unselected part of about 17,000 deposited reagents. In the full data, 788 (4.7%) got an active call. 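Calls rest on z-score classes alone; an extra cut-off of viability at most 70% of control was not applied to them.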 Unmarked entries are inactive. No sequences are given here.

Purpose: 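Find knock-downs that sensitise mouse osteosarcoma cells to doxorubicin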 (primary screen)
System: mouse osteosarcoma cells, early-passage culture from an engineered mouse model of fibroblastic bone tumour
Reagents: siRNA pool against mouse genes, 40 nM
Time to read-out: about 120 h (48 h before drug, then 72 h with drug)
Challenge: doxorubicin 100 nM for 72 h, roughly 30-40% inhibitory dose
Measurement: 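Viability read as ATP luminescence after 72 h of 100 nM doxorubicin or none, duplicate wells averaged, scaled to non-targeting siRNA, then expressed as robust z-scores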
Direction: viability z-score with doxorubicin and doxorubicin viability vs non-targeting: higher = more viable cells under doxorubicin; viability z-score without drug: higher = more viable cells with knock-down alone; z-score of drug to no-drug ratio: higher = less drug sensitisation by knock-down
Hit rule: 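Called active if knock-down leaves viability unchanged without drug (z within -2 to 2) but lowers it with doxorubicin (z at or under -2)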

The first 2 records, to show the layout:
| target gene | combined z-score class | viability z-score with doxorubicin | viability z-score without drug | z-score of drug to no-drug ratio | doxorubicin viability vs non-targeting |
| --- | --- | --- | --- | --- | --- |
| Prf1 (perforin 1 (pore forming protein)) | no change with or without drug | 1.35 | 0.17 | 1.35 | 1.06 |
| Ggn (gametogenetin) | high cell count without drug only | 0.9 | 2.19 | -0.45 | 1.02 |

Main list, from the start:
| target gene | combined z-score class | viability z-score with doxorubicin | viability z-score without drug | z-score of drug to no-drug ratio | doxorubicin viability vs non-targeting |
| --- | --- | --- | --- | --- | --- |
| Prf1 (perforin 1 (pore forming protein)) | no change with or without drug | 1.35 | 0.17 | 1.35 | 1.06 |
| Ggn (gametogenetin) | high cell count without drug only | 0.9 | 2.19 | -0.45 | 1.02 |
| Polk (polymerase (DNA directed), kappa) | low cell count with and without drug | -4.16 | -2.19 | -3.15 | 0.57 |
| Tafa2 (TAFA chemokine like family member 2) | high cell count without drug only | -0.56 | 2.02 | -1.69 | 0.89 |
| Dlgap3 (DLG associated protein 3) | no change with or without drug | -0.45 | -0.51 | 0 | 0.9 |
| Zdhhc17 (zinc finger, DHHC domain containing 17) | no change with or without drug | 1.35 | 1.18 | 0.67 | 1.06 |
| Vsig2 (V-set and immunoglobulin domain containing 2) | no change with or without drug | -0.67 | 0.67 | -1.01 | 0.88 |
| Eml4 (echinoderm microtubule associated protein like 4) | no change with or without drug | 1.35 | 1.69 | 0.34 | 1.06 |
| Prune1 (prune exopolyphosphatase) | no change with or without drug | 0.67 | -0.51 | 1.24 | 1 |
| Tmc8 (transmembrane channel-like gene family 8) | no change with or without drug | 1.46 | 0.84 | 1.01 | 1.07 |
| Agt (angiotensinogen) | no change with or without drug | 0.22 | -0.51 | 0.67 | 0.96 |
| Klra19 (killer cell lectin-like receptor, subfamily A, member 19) | no change with or without drug | 0.22 | 0.84 | -0.22 | 0.96 |
| Mtmr6 (myotubularin related protein 6) | no change with or without drug | -1.35 | -1.18 | -0.56 | 0.82 |
| Slc28a3 | no change with or without drug | 1.46 | 1.85 | 0.34 | 1.07 |
| Git2 (GIT ArfGAP 2) | no change with or without drug | -0.79 | 0.17 | -0.79 | 0.87 |
| Fap (fibroblast activation protein) | no change with or without drug | -0.45 | -0.51 | 0 | 0.9 |
| Nhlrc2 (NHL repeat containing 2) | no change with or without drug | 0.56 | 0.84 | 0.11 | 0.99 |
| Or51h5 (olfactory receptor family 51 subfamily H member 5) | no change with or without drug | 0.22 | -0.17 | 0.45 | 0.96 |
| Capn7 (calpain 7) | no change with or without drug | -0.56 | -1.18 | 0.34 | 0.89 |
| Vwf (Von Willebrand factor) | no change with or without drug | -0.45 | 0.17 | -0.45 | 0.9 |
